This is a selection; strong and weak results do not stand in their true shares. The source made the active and inactive calls. No stated cut-off is given here; in the data, active means inhibition above about 80%; inactive means the rest.

The chains behind the UniProt entries cited, without tags or fusion partners.
UniProt P34913, whole entry, looked up: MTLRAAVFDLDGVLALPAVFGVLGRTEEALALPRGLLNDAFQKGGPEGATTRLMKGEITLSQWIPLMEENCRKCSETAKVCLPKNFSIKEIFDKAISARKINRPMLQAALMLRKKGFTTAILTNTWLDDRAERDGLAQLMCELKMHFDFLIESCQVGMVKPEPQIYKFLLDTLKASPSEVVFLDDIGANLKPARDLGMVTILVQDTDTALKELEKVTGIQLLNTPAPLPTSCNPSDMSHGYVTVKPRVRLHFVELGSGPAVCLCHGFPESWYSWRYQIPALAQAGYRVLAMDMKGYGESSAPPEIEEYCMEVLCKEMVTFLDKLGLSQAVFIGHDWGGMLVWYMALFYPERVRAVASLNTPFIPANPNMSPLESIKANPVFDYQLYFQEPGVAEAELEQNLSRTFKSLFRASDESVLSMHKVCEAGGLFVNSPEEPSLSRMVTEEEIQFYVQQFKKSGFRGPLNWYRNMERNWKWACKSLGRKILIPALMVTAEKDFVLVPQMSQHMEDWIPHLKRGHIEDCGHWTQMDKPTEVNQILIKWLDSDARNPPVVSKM

One may read the inhibition as the share of the control response that was lost under treatment.

The assay has as its target Bifunctional epoxide hydrolase 2 (Homo sapiens) (UniProt P34913). In words: sEH enzyme activity blockers – biochemical, human sEH, primary screen (AID 707). The settings on record: recombinant human sEH enzymatic activity assay; at 2 µM; active compounds read high.
Turning to `CCN(CC)S(=O)(=O)c1cccc(C(=O)Nc2ccc(Cl)cn2)c1`, the inhibition was active: 83.9%.

The record behind these values is PubChem BioAssay AID707 (Columbia University Molecular Screening Center, 2007).
